# The other results are listed elsewhere or left out. These are further read-outs of the screen, such as a control signal, another cell line or another target. No call is given for them. Most of these compounds were active or inconclusive in the main read-out, so they are no random draw. The note in brackets gives the kind of curve behind each potency; many fits are weak.
# Assay: qHTS Assay for Lipid Storage Modulators in Drosophila S3 Cells;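 as to cell number change: cells counted by Cell Tracker Red CMTPX staining in the red channel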
# Conditions: BODIPY lipid droplet fluorescence, 18-24 h; for cell number change: measured here: cell count max response, cells fed with added oleic acid
# How it was run: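 Laser-scanning cytometry quantifies lipid droplet accumulation (500–530 nm total intensity; droplet/cell object ratio) in oleic acid-fed (400 uM added) Drosophila S3 cells treated with a concentration series. 20 uM Triacsin C defined 100% inhibition.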
# [1] = measured here: cell number channel AC50, cells fed with added oleic acid
# [2] = measured here: lipid fluorescence (Fed channel) AC50, cells fed with added oleic acid
Structure (SMILES),cell number change [%],AC50 [1],AC50 [2]
CC(C)c1ccc(N(CC(=O)N2CCOCC2)S(C)(=O)=O)cc1,4.53,–,–
CCOc1ccc(Cn2cc(F)c(=O)[nH]c2=O)cc1,33.5,"16.4 µM [rising, partial curve, poor fit]",–
Cc1ccc(N2C(=O)CC(Sc3ncn[nH]3)C2=O)cc1 (centres undefined),18.4,–,"7.31 µM [rising, partial curve, poor fit]"
COC(=O)c1ccc2nccnc2c1,30,"18.4 µM [rising, single point]",–
COCCN1C(=O)C(=O)/C(=C(/O)c2ccc(S(=O)(=O)N3CCOCC3)cc2)C1c1ccc(O)cc1 (centres undefined),-14.3,–,"0.13 µM [falling, full curve, poor fit]"
CCOC(=O)Cn1nnnc1C(C(C)C)N(Cc1cc2c(C)cc(C)cc2[nH]c1=O)C1CCCC1 (centres undefined),-34.6,"29.1 µM [falling, single point]",–
Cc1nc(N)c(C#N)c(-c2cccnc2)c1-c1ccccc1,11.1,–,–
Oc1ccccc1-n1c(-c2ccccc2)ccc1-c1ccccc1,–,–,"0.13 µM [falling, full curve, poor fit]"
O=S1(=O)N=C(N/N=C/C=C/c2ccccc2)c2ccccc21,-11.8,–,"20.6 µM [falling, partial curve, poor fit]"
COc1ccc(C(C(=O)NCc2ccccc2)N(C(=O)c2snc(C(N)=O)c2N)C2CCCC2)cc1 (centres undefined),-19,–,–
CCOC(=O)c1cnc2ccc(OCC)cc2c1N(C)Cc1ccccc1,-27.4,–,"29.1 µM [falling, single point]"
COc1ccc(CCNC(=O)C2CCN(S(=O)(=O)c3ccc(C)cc3)CC2)cc1,–,"0.326 µM [rising, full curve, poor fit]",–
Cc1cc(NS(=O)(=O)c2ccc(NC(=O)Nc3ccccc3)cc2)no1,1.25,–,"0.291 µM [falling, full curve, poor fit]"
COc1ccc(-n2nc(C(=O)Nc3ccc4c(c3)OCO4)c3c4ccccc4n(C)c3c2=O)cc1,223,"29.1 µM [rising, partial curve]","29.1 µM [rising, partial curve]"
CCOC(=O)c1c(N)sc(=S)c2c1CCC2,-4.65,"0.731 µM [rising, single point]",–
COCCCNC(=S)NNC(=O)c1ccoc1C,22.6,–,"0.0058 µM [rising, full curve, poor fit]"
CCOC(=O)C1=C(c2ccccc2)N2CCS(=O)(=O)N=C2S1,–,"2.59 µM [rising, partial curve]","3.66 µM [rising, partial curve]"
CCc1ccc(NC(=O)C(=O)NNC(=O)c2ccc(OC)cc2)cc1,50.9,"32.6 µM [rising, partial curve, poor fit]",–
C=CCc1cc(C)ccc1OCCn1ccnc1,10.6,–,"2.06 µM [rising, partial curve]"
Cc1cc(C)n2nc(C(=O)OCC(=O)NCc3ccc(Cl)cc3)nc2n1,11.7,"3.66 µM [falling, single point]","3.66 µM [falling, single point]"

# Retrieved one by one from above:
Structure (SMILES),cell number change [%],AC50 [1],AC50 [2]
CCc1ccc(NC(=O)C(=O)NNC(=O)c2ccc(OC)cc2)cc1,50.9,"32.6 µM [rising, partial curve, poor fit]",–
COc1ccc(-n2nc(C(=O)Nc3ccc4c(c3)OCO4)c3c4ccccc4n(C)c3c2=O)cc1,223,"29.1 µM [rising, partial curve]","29.1 µM [rising, partial curve]"

# The list goes on.

Structure (SMILES),cell number change [%],AC50 [1],AC50 [2]
COC(=O)c1sccc1Oc1c(Cl)cccc1[N+](=O)[O-],1.3,–,–
CC(=O)c1cc(NC(=O)c2ccc([N+](=O)[O-])cc2)c(=O)oc1C,-18.9,–,"0.0517 µM [falling, full curve]"
O=C(NC1CCSC1)c1cccc(Cl)c1 (centres undefined),23.7,–,–
N#Cc1ccc(-c2ccc(F)cc2)nc1Sc1ccccc1,-10.6,"1.03 µM [falling, full curve, poor fit]","0.731 µM [falling, full curve]"
CCOC(=O)c1csc(NC(=O)CSc2nnnn2CC)n1,-15.4,"0.13 µM [falling, full curve, poor fit]","0.0259 µM [falling, full curve, poor fit]"
COC(=O)CON1C(=O)c2ccccc2C1=O,–,–,"5.8 µM [falling, partial curve]"
CCC(C)(C)C1CCc2[nH]nc(C(=O)N/N=C(\C)c3ccco3)c2C1 (centres undefined),-36.9,"14.6 µM [falling, single point]","29.1 µM [falling, single point]"
O=C(CCNC(=O)c1ccc(Br)cc1)NCc1ccccn1,30.3,"16.4 µM [rising, single point]",–
CSc1cc(-c2ccccc2)n(C)c(=O)c1C#N,36.4,"0.411 µM [rising, full curve, poor fit]","29.1 µM [rising, partial curve, poor fit]"
Cn1cc(S(=O)(=O)NC(c2ccccc2)c2ccccc2)c(=O)n(C)c1=O,3.94,–,"2.59 µM [falling, single point]"
CN1/C(=N\O)c2cccc3cccc1c23,3.96,–,"4.61 µM [rising, single point]"
CCc1ccc(CNC(=O)C2Cc3cc(S(=O)(=O)N4CCCC4)ccc3N2C(C)=O)cc1 (centres undefined),–,–,"18.4 µM [falling, single point]"
CCc1nc(N)nc2c1C(=O)CC(C)(C)C2,9.15,"2.59 µM [rising, partial curve, poor fit]",–
COc1cccc(NC(=O)Nn2cnnc2)c1,29.2,–,–
COc1ccc(CCC(=O)NNC(=O)c2cccs2)cc1,18.6,–,"5.17 µM [rising, full curve, poor fit]"
O=C(NCCC(c1ccccc1)c1ccccc1)c1cccs1,10.9,"0.146 µM [falling, full curve, poor fit]","0.116 µM [falling, full curve]"
CCOc1ccc(-n2cc(C(=O)NCc3ccco3)c3cc(OC)c(OC)cc3c2=O)cc1,3.37,–,–
CCOc1ccccc1OCC(=O)Nc1nc2ccccc2[nH]1,–,"5.8 µM [rising, single point]",–
CC1=N/C(=C\c2ccc(OC(C)C)cc2)C(=O)N1c1ccc(C(=O)O)cc1,15.3,"1.16 µM [rising, full curve]","0.651 µM [rising, full curve]"

# Look-ups from above:
# Entry of `CC(=O)c1cc(NC(=O)c2ccc([N+](=O)[O-])cc2)c(=O)oc1C` under AC50 [2]: 0.0517 µM [falling, full curve]
# Entry of `COc1cccc(NC(=O)Nn2cnnc2)c1` under cell number change [%]: 29.2

# Source: PubChem BioAssay AID2685 (National Center for Advancing Translational Sciences (NCATS), 2010)
